Measurements taken from patent publication US20260184702A1, “SYNTHESIS, PHARMACOLOGY AND USE OF NEW WATER-SOLUBLE AND SELECTIVE FMS-LIKE TYROSINE KINASE3 (FLT3) INHIBITORS” (Universität Regensburg, priority 2022, published 2026).

System: MV4-11 cells (FLT3-ITD positive)
Assay: Cell Titer-Glo proliferation assay with MV4-11 cells
Assay type: cell-based
Settings: Homo sapiens, MV4-11, 72 h
Description: MV4-11 cells are human acute myeloid leukemia cell lines that carry a FLT3-ITD mutation (American Type Culture Collection, ATCC, Manassas, VA, United States). Cells were cultured in IMDM medium plus 100 μg/mL penicillin, 100 μg/mL streptomycin and 10% FBS. All cells were kept at 37° C., 5% CO2.
Cell proliferation was assessed with Cell Titer-Glo® Viability Assay (Promega; Madison, WI, United States) according to the manufacturer's instructions. […]

CN[C@@H]1C[C@H]2O[C@@](C)([C@@H]1OC)n1c3ccccc3c3c4c(c5c6ccccc6n2c5c31)C(=O)NC4 [Staurosporine, reference compound]
IC50: 0.06 nM
